A short description of the assay: qHTS Assay for Lipid Storage Modulators in Drosophila S3 Cells.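 On cell number change: cells counted by Cell Tracker Red CMTPX staining in the red channel.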 To be noted: BODIPY lipid droplet fluorescence, 18-24 h; for cell number change: measured here: cell count max response, cells fed with added oleic acid. A digest of the protocol: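 Laser-scanning cytometry quantifies lipid droplet accumulation (500–530 nm total intensity; droplet/cell object ratio) in oleic acid-fed (400 uM added) Drosophila S3 cells treated with a concentration series. 20 uM Triacsin C defined 100% inhibition.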

Setting [1] is: measured here: lipid fluorescence (Fed channel) AC50, cells fed with added oleic acid.
[2] abbreviates: measured here: cell number channel AC50, cells fed with added oleic acid.

SMILES strings stand for the structures. The list shows a part of the results. Shown are side measurements of this screen, not its main read-out; they come without a call. Compounds called inactive in the main read-out are mostly missing here. Words in brackets tell the shape of the fitted curve; partial curves, single points and poor fits give uncertain potencies.

For the molecule `CS(=O)(=O)Nc1ccc(C(=O)NCc2ccc3c(c2)OCO3)cc1`, the cell number change was found to be 1.64%. Besides, the AC50 (as a rule, the concentration giving half of the maximal activity seen) under setting [1] was 2.91 µM [rising, single point].
For the molecule `CCC(C(=O)Nc1cccc(C(=O)O)c1C)c1ccccc1` (stereo not given), the cell number change came out at 28.1%.
Turning to `Cc1nnc(NC(=O)c2ccc(S(=O)(=O)N3CCCCC3C)cc2)o1` (stereo not given), the cell number change was found to be 14%. For the same molecule, the AC50 under setting [1] is 0.731 µM [falling, single point].
Consider `COc1cccc(OCc2nc3c4cnn(-c5ccccc5)c4ncn3n2)c1`, for which the cell number change was -89.4%. Further, the AC50 under setting [2] is 20.6 µM [falling, single point]. Besides, the AC50 under setting [1] is 29.1 µM [falling, single point].
For `Cc1ccccc1CC1(CO)CCCN(C(=O)c2cccc(Cl)c2)C1` (stereo not given), the cell number change was determined as 28.3%. Further, the concentration at half-maximal activity (AC50) under setting [1] is 6.51 µM [rising, full curve, poor fit].
For the molecule `Cc1nnc(SC(C)C(=O)NC2CCCCC2)s1` (stereo not given), the cell number change stood at 0.961%. Moreover, the AC50 under setting [1] is 0.461 µM [falling, full curve, poor fit].
Take `COc1cc2sc(C)nc2c2ccccc12`: the cell number change was determined as 9.22%. Also, the AC50 under setting [1] is 29.1 µM [falling, single point].
Turning to `CN(C/C=C/c1ccccc1[N+](=O)[O-])Cc1ccccc1`, the cell number change was 2.92%. Also, the AC50 under setting [2] was 2.91 µM [rising, single point]. Moreover, the AC50 under setting [1] is 6.51 µM [rising, partial curve, poor fit].
`Cc1ccccc1CNCc1ccc2c(c1)OCO2`: the cell number change was 27.8%. Besides, the AC50 under setting [2] is 2.31 µM [rising, partial curve, poor fit].
As to `O=C(O)/C=C/C(=O)Nc1ccccc1C(=O)OCC(=O)c1ccc2c(c1)OCCO2`, the cell number change came out at 23%. The AC50 under setting [1] is 25.9 µM [rising, single point].
Regarding `CC1(C)N([O-])C(c2cccs2)=C[N+]1=O`, the cell number change was -27.6%. Besides, the AC50 under setting [2] is 0.082 µM [falling, full curve, poor fit]. The AC50 under setting [1] was 3.26 µM [falling, full curve].
For `CCOc1ccc(-c2c(C(=O)N/N=C/c3ccc(Cl)cc3)nnn2-c2nonc2N)cc1`, the cell number change came to 74.6%. Further, the AC50 under setting [1] is 20.6 µM [falling, partial curve].
As for `O=C(CN1CCN(S(=O)(=O)c2ccc(F)cc2)CC1)NCC1(N2CCOCC2)CCCCC1`, the cell number change stood at 8.55%. Moreover, the AC50 under setting [1] was 29.1 µM [falling, single point].
Turning to `CC1=C(C(=O)OCc2ccccc2)C(c2ccc(-c3ccccc3)cc2)NC(=O)N1CCCCCC(=O)O` (stereo not given), the cell number change was -7.68%. Moreover, the AC50 under setting [1] is 11.6 µM [rising, partial curve].
With `CN(C)CCCOC(=O)C1c2ccccc2Oc2ccccc21`, the cell number change is -29.8%. Moreover, under setting [1], the AC50 was 7.31 µM [falling, partial curve].
For the molecule `CC1CCN(C(=O)c2ccc(S(=O)(=O)NCc3ccco3)cc2)CC1`, the cell number change worked out at 0.87%.
Consider `O=C(OCC(=O)N1CCOCC1)c1ccccc1SCC(=O)N1CCCC1`, for which the cell number change came to 9.63%.
With `N/C(=N\N=C/c1ccc(F)cc1)N/N=C\c1ccc(F)cc1`, the cell number change was -17.4%.
With `Cc1ccc(-c2c(C)n([O-])c3c([n+]2=O)CCCCC3)cc1`, the cell number change worked out at 8.68%. Also, under setting [1], the AC50 is 1.64 µM [falling, full curve, poor fit].
As for `CCCCN1Cc2c(nc3cc(-c4ccccc4)[nH]n3c2=O)C1=O`, the cell number change was -46.2%. Further, the AC50 under setting [1] is 29.1 µM [falling, single point].
Turning to `CC(=O)NC(CCS(C)(=O)=O)C(=O)Nc1ccc(C)c(F)c1` (stereo not given), the cell number change was -5.35%.
Regarding `Cc1ccc(O)c(N=Nc2ccc(S(=O)(=O)N3CCOCC3)cc2)c1`, the cell number change was -22.3%. Also, under setting [1], the half-maximal activity concentration (AC50) is 10.3 µM [falling, partial curve, poor fit].
For the molecule `N#CCSCC(=O)Nc1ccc(Cl)cc1`, the cell number change is -60.7%. Further, the concentration at half-maximal activity (AC50) under setting [2] is 29.1 µM [falling, single point]. For the same molecule, the AC50 under setting [1] is 3.66 µM [falling, single point].
`CCOC(=O)C(Cc1ccc(NC(C)=O)cc1)N1C(=O)c2ccccc2C1=O` (stereo not given): the cell number change is -12.9%. In addition, the AC50 under setting [2] is 0.731 µM [falling, partial curve, poor fit]. Moreover, the AC50 under setting [1] was 0.651 µM [falling, full curve, poor fit].
Regarding `CCOC(=O)c1cnc2cc(-c3ccc(C(C)(C)C)cc3)nn2c1N`, the cell number change was -26.2%. Under setting [2], the AC50 is 6.51 µM [falling, single point]. Further, under setting [1], the AC50 is 0.184 µM [falling, full curve, poor fit].
`CCOC(=O)c1c(C(C#N)C#N)cc(C)nc1C`: the cell number change was -1.65%.
For `COc1ccc(C(=O)NCC(=O)N2CCN(c3ncccn3)CC2)cc1OC`, the cell number change worked out at 14.7%. Further, the AC50 under setting [1] is 6.51 µM [falling, single point].
As to `CCn1c(N2CCN(S(=O)(=O)c3ccc(OC)cc3)CC2)nc2ccccc21`, the cell number change amounted to 17.9%. In addition, under setting [1], the AC50 is 23.1 µM [falling, single point].
For `CN(C(=O)c1ccc(NC(=O)Cc2ccc(NC(=O)C3CCCN(C(=O)C4CCCCC4)C3)cc2)cc1)C1CC1` (stereo not given), the cell number change was found to be 6.02%. Besides, the AC50 under setting [2] was 3.66 µM [falling, single point]. Also, the AC50 under setting [1] was 6.51 µM [falling, single point].
Turning to `CC1(C)NC(=O)N(CCOCCOc2ccc3ccccc3c2Br)C1=O`, the cell number change was -0.832%.
Consider `COc1ccccc1N1CCN(C(=O)c2ccc(-c3nc4ccccc4s3)o2)CC1`, for which the cell number change is -7.52%. The AC50 under setting [1] was 0.0651 µM [falling, full curve, poor fit].
As to `O=c1c(S(=O)(=O)c2ccc(Cl)cc2)cn(Cc2ccccc2)c2ccc(F)cc12`, the cell number change was determined as 37.3%. Moreover, under setting [2], the AC50 is 18.4 µM [rising, partial curve, poor fit]. Besides, the half-maximal activity concentration (AC50) under setting [1] was 29.1 µM [falling, single point].
`COC(=O)c1c(NC(=O)CN2C(=O)C(=O)N(CC(C)C)C2=O)sc(C)c1C`: the cell number change is 19.5%. For the same molecule, the AC50 under setting [2] was 6.51 µM [rising, single point].
On to `COC(=O)c1ccccc1NC(=O)c1ccc(COc2cc(C)cc(C)c2)o1`, for which, under setting [1], the concentration at half-maximal activity (AC50) was 6.51 µM [rising, single point].
`CC(=O)c1ccc(N2CCN(CC(=O)Nc3ccc(N4CCOCC4)cc3)CC2)cc1`: the cell number change came out at 33.8%. The AC50 under setting [2] is 2.91 µM [rising, partial curve]. Further, under setting [1], the AC50 is 0.517 µM [rising, full curve].
As for `Cc1ccc(S(=O)(=O)N2CCOCC2)cc1C(=O)NCc1cccs1`, the cell number change is -0.919%. Moreover, the AC50 under setting [1] was 2.91 µM [falling, single point].
Take `COc1ccc(OCC(=O)N(Cc2ccco2)C2CCS(=O)(=O)C2)cc1` (stereo not given): the cell number change is -2.46%. The AC50 under setting [1] is 6.51 µM [falling, partial curve, poor fit].

The values above are taken from PubChem BioAssay AID2685 (National Center for Advancing Translational Sciences (NCATS), 2010).
